Values are animals surviving of animals treated; these mice carried no tumour. Survivors were counted at the toxicity check, usually on the fifth day, unless a day is given; later deaths do not show. Schedules are NCI's codes, taken here to give the interval after Q, in days (D) or hours (H), and the number of doses after X. Some molecules as drawn cover several salts, stereoisomers or complexes of the source; a dose is that of the sample tested. Marks such as (2×) count equal records among those shown. Some entries were tested several times; the values are given in rising order.
Test system: CD2F1 mice, nontumored, toxicity/survival
Assay: NCI In Vivo Anticancer Drug Screen. Data for tumor model Nontumored Animals (Toxicity Test) in CD2F1 (CDF1) mice

Measured: survivor count

COc1cc(NS(C)(=O)=O)ccc1Nc1c2ccccc2nc2ccccc12
5 of 5 and 8 of 8 (2×): dose: 1.0 mg/kg/injection, schedule: Q04DX003 (ip), vehicle: other
2 of 3: dose: 1.5 mg/kg/injection, schedule: Q01DX009 (ip), vehicle: other
3 of 8: dose: 1024.0 mg/kg/injection, schedule: Q01DX001 (oral), vehicle: saline
5 of 8 (2×): dose: 32.0 mg/kg/injection, schedule: Q08DX002 (ip), vehicle: other
6 of 8 and 8 of 8: dose: 256.0 mg/kg/injection, schedule: Q01DX001 (oral), vehicle: saline
7 of 8 and 8 of 8: dose: 8.0 mg/kg/injection, schedule: Q04DX003 (ip), vehicle: saline | dose: 16.0 mg/kg/injection, schedule: Q01DX009 (ip), vehicle: saline | dose: 64.0 mg/kg/injection, schedule: Q01DX009 (oral), vehicle: saline | dose: 128.0 mg/kg/injection, schedule: Q01DX001 (ip), vehicle: saline
1 of 8 (2×): dose: 64.0 mg/kg/injection, schedule: Q01DX001 (ip), vehicle: other | dose: 64.0 mg/kg/injection, schedule: Q08DX002 (ip), vehicle: other | dose: 256.0 mg/kg/injection, schedule: Q01DX001 (oral), vehicle: other
0 of 2: dose: 6.0 mg/kg/injection, schedule: Q01DX009 (ip), vehicle: other
3 of 8 (2×): dose: 8.0 mg/kg/injection, schedule: Q03HX016 (ip), vehicle: other
0 of 8 and 6 of 8: dose: 16.0 mg/kg/injection, schedule: Q03HX008 (ip), vehicle: saline
5 of 8: dose: 16.0 mg/kg/injection, schedule: Q03HX016 (ip), vehicle: saline | dose: 256.0 mg/kg/injection, schedule: Q08DX002 (ip), vehicle: saline
8 of 8 (2×): dose: 0.06 mg/kg/injection, schedule: Q03HX024 (ip), vehicle: other | dose: 0.12 mg/kg/injection, schedule: Q03HX024 (ip), vehicle: other | dose: 0.25 mg/kg/injection, schedule: Q01DX009 (ip), vehicle: other | dose: 0.25 mg/kg/injection, schedule: Q01DX009 (sc), vehicle: other | dose: 0.25 mg/kg/injection, schedule: Q03HX016 (ip), vehicle: other | dose: 0.25 mg/kg/injection, schedule: Q03HX024 (ip), vehicle: other | dose: 0.5 mg/kg/injection, schedule: Q01DX009 (ip), vehicle: other | dose: 0.5 mg/kg/injection, schedule: Q01DX009 (sc), vehicle: other | dose: 0.5 mg/kg/injection, schedule: Q03HX008 (ip), vehicle: other | dose: 0.5 mg/kg/injection, schedule: Q03HX016 (ip), vehicle: other | dose: 0.5 mg/kg/injection, schedule: Q03HX024 (ip), vehicle: other | dose: 0.5 mg/kg/injection, schedule: Q04DX003 (ip), vehicle: other | dose: 1.0 mg/kg/injection, schedule: Q01DX009 (ip), vehicle: other | dose: 1.0 mg/kg/injection, schedule: Q01DX009 (ip), vehicle: saline | dose: 1.0 mg/kg/injection, schedule: Q01DX009 (oral), vehicle: other | dose: 1.0 mg/kg/injection, schedule: Q01DX009 (sc), vehicle: other | dose: 1.0 mg/kg/injection, schedule: Q01DX009 (sc), vehicle: saline | dose: 1.0 mg/kg/injection, schedule: Q03HX008 (ip), vehicle: other | dose: 1.0 mg/kg/injection, schedule: Q03HX016 (ip), vehicle: other | dose: 1.0 mg/kg/injection, schedule: Q03HX024 (ip), vehicle: other | dose: 1.0 mg/kg/injection, schedule: Q03HX024 (ip), vehicle: saline | dose: 2.0 mg/kg/injection, schedule: Q01DX001 (ip), vehicle: other | dose: 2.0 mg/kg/injection, schedule: Q01DX001 (sc), vehicle: other | dose: 2.0 mg/kg/injection, schedule: Q01DX009 (ip), vehicle: other | dose: 2.0 mg/kg/injection, schedule: Q01DX009 (ip), vehicle: saline | dose: 2.0 mg/kg/injection, schedule: Q01DX009 (oral), vehicle: other | dose: 2.0 mg/kg/injection, schedule: Q01DX009 (sc), vehicle: other | dose: 2.0 mg/kg/injection, schedule: Q01DX009 (sc), vehicle: saline | dose: 2.0 mg/kg/injection, schedule: Q03HX008 (ip), vehicle: other | dose: 2.0 mg/kg/injection, schedule: Q03HX008 (ip), vehicle: saline | dose: 2.0 mg/kg/injection, schedule: Q03HX016 (ip), vehicle: other | dose: 2.0 mg/kg/injection, schedule: Q03HX016 (ip), vehicle: saline | dose: 2.0 mg/kg/injection, schedule: Q03HX024 (ip), vehicle: other | dose: 2.0 mg/kg/injection, schedule: Q03HX024 (ip), vehicle: saline | dose: 2.0 mg/kg/injection, schedule: Q08DX002 (ip), vehicle: other | dose: 4.0 mg/kg/injection, schedule: Q01DX001 (ip), vehicle: other | dose: 4.0 mg/kg/injection, schedule: Q01DX001 (sc), vehicle: other | dose: 4.0 mg/kg/injection, schedule: Q01DX009 (ip), vehicle: other | dose: 4.0 mg/kg/injection, schedule: Q01DX009 (ip), vehicle: saline | dose: 4.0 mg/kg/injection, schedule: Q01DX009 (oral), vehicle: other | dose: 4.0 mg/kg/injection, schedule: Q01DX009 (oral), vehicle: saline | dose: 4.0 mg/kg/injection, schedule: Q01DX009 (sc), vehicle: other | dose: 4.0 mg/kg/injection, schedule: Q01DX009 (sc), vehicle: saline | dose: 4.0 mg/kg/injection, schedule: Q03HX008 (ip), vehicle: saline | dose: 4.0 mg/kg/injection, schedule: Q03HX016 (ip), vehicle: saline | dose: 4.0 mg/kg/injection, schedule: Q03HX024 (ip), vehicle: saline | dose: 4.0 mg/kg/injection, schedule: Q08DX002 (ip), vehicle: other | dose: 8.0 mg/kg/injection, schedule: Q01DX001 (ip), vehicle: other | dose: 8.0 mg/kg/injection, schedule: Q01DX001 (oral), vehicle: other | dose: 8.0 mg/kg/injection, schedule: Q01DX001 (sc), vehicle: other | dose: 8.0 mg/kg/injection, schedule: Q01DX009 (ip), vehicle: other | dose: 8.0 mg/kg/injection, schedule: Q01DX009 (ip), vehicle: saline | dose: 8.0 mg/kg/injection, schedule: Q01DX009 (oral), vehicle: other | dose: 8.0 mg/kg/injection, schedule: Q01DX009 (oral), vehicle: saline | dose: 8.0 mg/kg/injection, schedule: Q01DX009 (sc), vehicle: other | dose: 8.0 mg/kg/injection, schedule: Q01DX009 (sc), vehicle: saline | dose: 8.0 mg/kg/injection, schedule: Q08DX002 (ip), vehicle: other | dose: 16.0 mg/kg/injection, schedule: Q01DX001 (ip), vehicle: other | dose: 16.0 mg/kg/injection, schedule: Q01DX001 (ip), vehicle: saline | dose: 16.0 mg/kg/injection, schedule: Q01DX001 (oral), vehicle: other | dose: 16.0 mg/kg/injection, schedule: Q01DX001 (sc), vehicle: other | dose: 16.0 mg/kg/injection, schedule: Q01DX001 (sc), vehicle: saline | dose: 16.0 mg/kg/injection, schedule: Q01DX009 (oral), vehicle: other | dose: 16.0 mg/kg/injection, schedule: Q01DX009 (oral), vehicle: saline | dose: 16.0 mg/kg/injection, schedule: Q01DX009 (sc), vehicle: saline | dose: 16.0 mg/kg/injection, schedule: Q04DX003 (ip), vehicle: saline | dose: 16.0 mg/kg/injection, schedule: Q08DX002 (ip), vehicle: other | dose: 16.0 mg/kg/injection, schedule: Q08DX002 (ip), vehicle: saline | dose: 32.0 mg/kg/injection, schedule: Q01DX001 (ip), vehicle: saline | dose: 32.0 mg/kg/injection, schedule: Q01DX001 (oral), vehicle: other | dose: 32.0 mg/kg/injection, schedule: Q01DX001 (sc), vehicle: other | dose: 32.0 mg/kg/injection, schedule: Q01DX001 (sc), vehicle: saline | dose: 32.0 mg/kg/injection, schedule: Q01DX009 (oral), vehicle: other | dose: 32.0 mg/kg/injection, schedule: Q01DX009 (oral), vehicle: saline | dose: 32.0 mg/kg/injection, schedule: Q04DX003 (ip), vehicle: saline | dose: 32.0 mg/kg/injection, schedule: Q08DX002 (ip), vehicle: saline | dose: 64.0 mg/kg/injection, schedule: Q01DX001 (ip), vehicle: saline | dose: 64.0 mg/kg/injection, schedule: Q01DX001 (oral), vehicle: other | dose: 64.0 mg/kg/injection, schedule: Q01DX001 (oral), vehicle: saline | dose: 64.0 mg/kg/injection, schedule: Q01DX001 (sc), vehicle: other | dose: 64.0 mg/kg/injection, schedule: Q01DX001 (sc), vehicle: saline | dose: 64.0 mg/kg/injection, schedule: Q08DX002 (ip), vehicle: saline | dose: 128.0 mg/kg/injection, schedule: Q01DX001 (oral), vehicle: other | dose: 128.0 mg/kg/injection, schedule: Q01DX001 (oral), vehicle: saline | dose: 128.0 mg/kg/injection, schedule: Q01DX001 (sc), vehicle: saline
7 of 8: dose: 128.0 mg/kg/injection, schedule: Q04DX003 (ip), vehicle: saline
2 of 8: dose: 16.0 mg/kg/injection, schedule: Q03HX024 (ip), vehicle: saline | dose: 32.0 mg/kg/injection, schedule: Q03HX016 (ip), vehicle: saline
4 of 8 and 7 of 8: dose: 8.0 mg/kg/injection, schedule: Q03HX008 (ip), vehicle: saline
7 of 8 (2×): dose: 0.25 mg/kg/injection, schedule: Q03HX008 (ip), vehicle: other | dose: 4.0 mg/kg/injection, schedule: Q03HX016 (ip), vehicle: other | dose: 4.0 mg/kg/injection, schedule: Q03HX024 (ip), vehicle: other | dose: 8.0 mg/kg/injection, schedule: Q03HX016 (ip), vehicle: saline | dose: 16.0 mg/kg/injection, schedule: Q01DX009 (sc), vehicle: other
0 of 2, 3 of 4, 8 of 8 (2×): dose: 16.0 mg/kg/injection, schedule: Q04DX003 (ip), vehicle: other
4 of 4, 5 of 5, 8 of 8 (2×): dose: 2.0 mg/kg/injection, schedule: Q04DX003 (ip), vehicle: other | dose: 4.0 mg/kg/injection, schedule: Q04DX003 (ip), vehicle: other | dose: 8.0 mg/kg/injection, schedule: Q04DX003 (ip), vehicle: other
0 of 8 (2×): dose: 8.0 mg/kg/injection, schedule: Q03HX008 (ip), vehicle: other | dose: 16.0 mg/kg/injection, schedule: Q03HX008 (ip), vehicle: other | dose: 16.0 mg/kg/injection, schedule: Q03HX016 (ip), vehicle: other | dose: 128.0 mg/kg/injection, schedule: Q01DX001 (ip), vehicle: other | dose: 128.0 mg/kg/injection, schedule: Q08DX002 (ip), vehicle: other | dose: 512.0 mg/kg/injection, schedule: Q01DX001 (oral), vehicle: other
4 of 4: dose: 0.75 mg/kg/injection, schedule: Q01DX009 (ip), vehicle: other | dose: 3.0 mg/kg/injection, schedule: Q01DX009 (ip), vehicle: other
6 of 8 (2×): dose: 4.0 mg/kg/injection, schedule: Q03HX008 (ip), vehicle: other | dose: 32.0 mg/kg/injection, schedule: Q04DX003 (ip), vehicle: other | dose: 128.0 mg/kg/injection, schedule: Q01DX001 (sc), vehicle: other
4 of 8 and 8 of 8: dose: 512.0 mg/kg/injection, schedule: Q01DX001 (oral), vehicle: saline
8 of 8: dose: 0.25 mg/kg/injection, schedule: Q03HX024 (ip), vehicle: saline | dose: 0.5 mg/kg/injection, schedule: Q03HX016 (ip), vehicle: saline | dose: 0.5 mg/kg/injection, schedule: Q03HX024 (ip), vehicle: saline | dose: 1.0 mg/kg/injection, schedule: Q03HX008 (ip), vehicle: saline | dose: 1.0 mg/kg/injection, schedule: Q03HX016 (ip), vehicle: saline | dose: 2.0 mg/kg/injection, schedule: Q04DX003 (ip), vehicle: saline | dose: 4.0 mg/kg/injection, schedule: Q04DX003 (ip), vehicle: saline | dose: 4.0 mg/kg/injection, schedule: Q08DX002 (ip), vehicle: saline | dose: 8.0 mg/kg/injection, schedule: Q01DX001 (ip), vehicle: saline | dose: 8.0 mg/kg/injection, schedule: Q01DX001 (sc), vehicle: saline | dose: 8.0 mg/kg/injection, schedule: Q08DX002 (ip), vehicle: saline | dose: 32.0 mg/kg/injection, schedule: Q01DX001 (oral), vehicle: saline | dose: 64.0 mg/kg/injection, schedule: Q04DX003 (ip), vehicle: saline | dose: 128.0 mg/kg/injection, schedule: Q08DX002 (ip), vehicle: saline | dose: 256.0 mg/kg/injection, schedule: Q01DX001 (ip), vehicle: saline | dose: 256.0 mg/kg/injection, schedule: Q01DX001 (sc), vehicle: saline
6 of 8: dose: 8.0 mg/kg/injection, schedule: Q03HX024 (ip), vehicle: saline
0 of 8: dose: 32.0 mg/kg/injection, schedule: Q03HX008 (ip), vehicle: saline
4 of 8 (2×): dose: 16.0 mg/kg/injection, schedule: Q01DX009 (ip), vehicle: other | dose: 32.0 mg/kg/injection, schedule: Q01DX001 (ip), vehicle: other | dose: 64.0 mg/kg/injection, schedule: Q01DX009 (oral), vehicle: other
